PubChem BioAssay AID1259405 – NCATS | 2018

Test: 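Mouse-designed siRNAs used to find CHO productivity engineering targets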 (primary screen)
Cells: Chinese hamster CHO-K1 ovary cells with stable secreted eGFP expression
Knock-down reagent: single siRNA against mouse genes, 0.8 pmol siRNA per well (2 µl of 400 nM stock)
Timing: 3 days
Measurement: 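Percent of the per-plate non-targeting control median for intracellular GFP per well by laser scanning cytometry and for cell viability by ATP luminescence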
Scale: GFP, % of control: higher = more GFP per well, higher productivity; viability (ATP), % of control: higher = more viable cells (more ATP)
Rule for the call: 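a knock-down is called active if GFP reaches 120% or more of non-targeting control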
The whole screen tested about 50,000 reagents; below is a random part of them. About 4,000 of them (8%) count as active. 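Mouse siRNA library applied to hamster cells; one well for each siRNA.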 Reagents against one gene are numbered here.

Gene | reagent no. | GFP, % of control | viability (ATP), % of control | Call
Bdnf | 1 | 37 | 52.2 | inactive
Bdnf | 2 | 72.9 | 81.3 | inactive
Bdnf | 3 | 58.8 | 58.9 | inactive
Dsg3 | 1 | 57.6 | 74.5 | inactive
Dsg3 | 2 | 75.2 | 73.8 | inactive
Dipk2b | 1 | 84.4 | 89.2 | inactive
Dipk2b | 2 | 39.9 | 42.3 | inactive
Dipk2b | 3 | 106 | 110 | inactive
Arsj | 1 | 65.3 | 52.2 | inactive
Arsj | 2 | 74.9 | 46.4 | inactive
Arsj | 3 | 71.6 | 125 | inactive
Pappa | 1 | 93.8 | 75.6 | inactive
Pappa | 2 | 45.6 | 47.3 | inactive
Pappa | 3 | 62.2 | 45.1 | inactive
Fam149a | 1 | 59.9 | 70.4 | inactive
Fam149a | 2 | 77.9 | 83.3 | inactive
Fam149a | 3 | 68.1 | 90.3 | inactive
Higd2a | 1 | 82.2 | 85.2 | inactive
Higd2a | 2 | 109 | 75.7 | inactive
Higd2a | 3 | 51.8 | 60 | inactive
Acrbp | 1 | 60.9 | 62.4 | inactive
Acrbp | 2 | 36.2 | 55.3 | inactive
Acrbp | 3 | 72.4 | 89.7 | inactive

Not a retest: an excerpt of the list.
Gene | reagent no. | GFP, % of control | viability (ATP), % of control | Call
Dipk2b | 1 | 84.4 | 89.2 | inactive
Dipk2b | 2 | 39.9 | 42.3 | inactive
Dipk2b | 3 | 106 | 110 | inactive
Arsj | 1 | 65.3 | 52.2 | inactive
Arsj | 2 | 74.9 | 46.4 | inactive
Arsj | 3 | 71.6 | 125 | inactive
Pappa | 1 | 93.8 | 75.6 | inactive
Pappa | 2 | 45.6 | 47.3 | inactive
Pappa | 3 | 62.2 | 45.1 | inactive

Next results follow.
Gene | reagent no. | GFP, % of control | viability (ATP), % of control | Call
Ifi44 | 1 | 112 | 91.5 | inactive
Ifi44 | 2 | 53.7 | 47.2 | inactive
Ifi44 | 3 | 85.7 | 78.3 | inactive
Spsb4 | 1 | 53.3 | 64.2 | inactive
Spsb4 | 2 | 73.5 | 112 | inactive
Spsb4 | 3 | 18.1 | 78.8 | inactive
Slc22a20 | 1 | 114 | 106 | inactive
Slc22a20 | 2 | 0 | 581 | inactive
Slc22a20 | 3 | 97.5 | 87.6 | inactive
Tuba1b | 1 | 94.9 | 93.9 | inactive
Tuba1b | 2 | 71.4 | 54.7 | inactive
Atg13 | 1 | 75.2 | 79.9 | inactive
Atg13 | 2 | 55.7 | 92.1 | inactive
Atg13 | 3 | 73.6 | 33.2 | inactive
Mep1a | 1 | 77.3 | 105 | inactive
Mep1a | 2 | 44.7 | 60.2 | inactive
Mep1a | 3 | 81.8 | 61.8 | inactive
Vmn1r70 | 1 | 118 | 81.6 | inactive
Vmn1r70 | 2 | 80.8 | 82.2 | inactive
Vmn1r70 | 3 | 47.1 | 67.4 | inactive
Tmem151a | 1 | 141 | 88.7 | active
Tmem151a | 2 | 50.4 | 64 | inactive
Tmem151a | 3 | 50.7 | 31.6 | inactive
Sigirr | 1 | 63.8 | 48.4 | inactive
Sigirr | 2 | 121 | 75.3 | active
Sigirr | 3 | 112 | 88.4 | inactive
Or7e173 | 1 | 114 | 82.4 | inactive
Or7e173 | 2 | 55.7 | 56.5 | inactive
Or7e173 | 3 | 95.9 | 127 | inactive
Pias4 | 1 | 84.5 | 32.4 | inactive
Pias4 | 2 | 98.2 | 89.8 | inactive
Pias4 | 3 | 69.2 | 106 | inactive
Grk3 | 1 | 59.6 | 68 | inactive
Pkig | 1 | 49.5 | 57.3 | inactive
Pkig | 2 | 86.4 | 62.4 | inactive
Pkig | 3 | 70.7 | 90.1 | inactive
